Structures can show the parent of a compound that is named as a salt. This is one part of the list. The calls rarely recur for the same compound in another form.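 In K562 cells expressing nanoluciferase-fused kinases, luminescence was recorded at 4 h intervals between 2 and 18 h, normalized as percent of control with DMSO at 100% and a positive control at 0%. A significant (2 sigma) signal drop marks a time point as decreased. The authors' rule for a hit is not shown and takes in more than the number of time points.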
Columns and labels:
Experiment in all cases: kinase-Nluc reporter destabilization hit call (1 = scored as downregulated) (binary); higher = compound decreases kinase abundance
Conditions in all cases: K562; 2-18 h
RET = RET (UniProt P07949)
[1] = biological target: RET_M918T (clone: RET_mut) (UniProt P07949)
RIOK1 = RIOK1 (UniProt Q9BRS2)
RIPK1 = RIPK1 (UniProt Q13546)
RIPK2 = RIPK2 (UniProt O43353)
ROR2 = ROR2 (UniProt Q01974)
RPS6KA1 = RPS6KA1 (UniProt Q15418)
SPHK1 = SPHK1 (UniProt Q9NYA1)
SRC = SRC (UniProt P12931)
STK24 = STK24 (UniProt Q9Y6E0)

Protein sequences, listed by entry. Tags and fused reporters are not part of them. Lines headed by an entry give the natural chain unless they say otherwise; changes in a name come on top.
UniProt P07949, whole entry, looked up: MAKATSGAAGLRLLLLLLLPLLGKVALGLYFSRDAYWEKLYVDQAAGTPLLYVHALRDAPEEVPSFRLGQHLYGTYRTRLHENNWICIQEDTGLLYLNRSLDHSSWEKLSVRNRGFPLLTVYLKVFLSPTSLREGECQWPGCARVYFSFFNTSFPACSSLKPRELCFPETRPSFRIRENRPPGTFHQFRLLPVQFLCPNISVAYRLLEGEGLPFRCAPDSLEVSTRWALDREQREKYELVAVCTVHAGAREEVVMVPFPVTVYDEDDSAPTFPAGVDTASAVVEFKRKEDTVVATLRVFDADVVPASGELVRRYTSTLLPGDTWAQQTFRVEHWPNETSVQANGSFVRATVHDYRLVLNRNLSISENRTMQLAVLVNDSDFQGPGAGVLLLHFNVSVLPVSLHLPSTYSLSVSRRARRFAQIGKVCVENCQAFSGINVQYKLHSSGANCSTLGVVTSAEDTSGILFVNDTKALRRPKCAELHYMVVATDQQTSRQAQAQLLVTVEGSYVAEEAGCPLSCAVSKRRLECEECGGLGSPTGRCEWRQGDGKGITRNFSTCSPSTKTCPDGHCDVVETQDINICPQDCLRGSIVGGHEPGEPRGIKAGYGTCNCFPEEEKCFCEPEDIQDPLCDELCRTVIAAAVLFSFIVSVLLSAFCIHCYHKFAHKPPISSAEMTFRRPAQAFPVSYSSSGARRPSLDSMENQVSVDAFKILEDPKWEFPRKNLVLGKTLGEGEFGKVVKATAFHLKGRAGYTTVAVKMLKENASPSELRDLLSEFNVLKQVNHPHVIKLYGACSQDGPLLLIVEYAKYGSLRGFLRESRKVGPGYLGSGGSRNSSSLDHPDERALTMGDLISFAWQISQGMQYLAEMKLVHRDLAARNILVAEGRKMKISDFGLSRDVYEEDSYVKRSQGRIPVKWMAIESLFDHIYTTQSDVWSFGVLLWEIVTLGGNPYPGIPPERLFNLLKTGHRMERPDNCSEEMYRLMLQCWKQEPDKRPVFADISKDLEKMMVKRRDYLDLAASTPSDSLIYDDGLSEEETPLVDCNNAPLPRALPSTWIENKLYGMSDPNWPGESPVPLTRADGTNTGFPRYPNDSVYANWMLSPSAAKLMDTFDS
UniProt P07949, whole entry M918T, looked up: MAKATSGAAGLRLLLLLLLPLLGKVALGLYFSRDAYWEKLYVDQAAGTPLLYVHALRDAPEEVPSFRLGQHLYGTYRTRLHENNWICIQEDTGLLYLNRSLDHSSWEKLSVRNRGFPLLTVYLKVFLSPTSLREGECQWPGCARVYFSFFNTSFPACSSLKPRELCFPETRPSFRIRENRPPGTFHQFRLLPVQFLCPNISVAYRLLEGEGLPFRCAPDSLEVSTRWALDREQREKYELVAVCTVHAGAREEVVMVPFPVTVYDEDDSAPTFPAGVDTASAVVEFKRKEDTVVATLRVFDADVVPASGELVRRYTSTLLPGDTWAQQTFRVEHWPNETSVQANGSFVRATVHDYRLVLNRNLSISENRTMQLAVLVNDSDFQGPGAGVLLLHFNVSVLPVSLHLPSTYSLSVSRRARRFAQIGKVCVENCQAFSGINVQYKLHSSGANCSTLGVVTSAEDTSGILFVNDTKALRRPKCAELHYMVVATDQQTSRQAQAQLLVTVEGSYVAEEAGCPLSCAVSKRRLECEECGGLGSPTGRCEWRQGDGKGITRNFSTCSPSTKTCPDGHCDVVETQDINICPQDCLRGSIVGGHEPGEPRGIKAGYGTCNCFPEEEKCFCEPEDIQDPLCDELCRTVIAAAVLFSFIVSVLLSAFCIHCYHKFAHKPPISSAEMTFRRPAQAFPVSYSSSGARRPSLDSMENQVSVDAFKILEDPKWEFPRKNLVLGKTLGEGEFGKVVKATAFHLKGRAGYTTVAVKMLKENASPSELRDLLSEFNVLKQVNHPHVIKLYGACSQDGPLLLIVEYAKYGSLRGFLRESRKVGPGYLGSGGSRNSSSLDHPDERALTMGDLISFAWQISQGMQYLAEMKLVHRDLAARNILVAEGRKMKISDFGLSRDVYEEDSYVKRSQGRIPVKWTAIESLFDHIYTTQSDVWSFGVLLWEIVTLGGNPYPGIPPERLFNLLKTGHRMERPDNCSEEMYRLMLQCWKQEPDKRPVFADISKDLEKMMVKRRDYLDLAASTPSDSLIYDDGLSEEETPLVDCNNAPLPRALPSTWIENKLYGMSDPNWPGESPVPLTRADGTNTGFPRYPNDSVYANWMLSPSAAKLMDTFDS
UniProt Q9BRS2: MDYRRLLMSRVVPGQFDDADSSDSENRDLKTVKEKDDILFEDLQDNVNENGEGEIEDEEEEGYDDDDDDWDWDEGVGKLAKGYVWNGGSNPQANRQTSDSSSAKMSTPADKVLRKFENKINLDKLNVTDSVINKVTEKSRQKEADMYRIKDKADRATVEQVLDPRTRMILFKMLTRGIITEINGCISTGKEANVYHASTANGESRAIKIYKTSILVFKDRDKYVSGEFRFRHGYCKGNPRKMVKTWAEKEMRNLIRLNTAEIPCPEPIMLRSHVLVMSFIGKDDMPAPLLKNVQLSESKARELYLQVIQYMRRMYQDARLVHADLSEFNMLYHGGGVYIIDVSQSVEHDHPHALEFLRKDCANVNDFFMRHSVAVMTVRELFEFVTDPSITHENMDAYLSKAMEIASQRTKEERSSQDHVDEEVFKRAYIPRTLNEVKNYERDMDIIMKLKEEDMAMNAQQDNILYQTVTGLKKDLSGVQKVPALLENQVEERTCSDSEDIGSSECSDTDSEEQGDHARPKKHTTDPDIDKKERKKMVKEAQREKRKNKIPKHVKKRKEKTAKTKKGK
UniProt Q13546: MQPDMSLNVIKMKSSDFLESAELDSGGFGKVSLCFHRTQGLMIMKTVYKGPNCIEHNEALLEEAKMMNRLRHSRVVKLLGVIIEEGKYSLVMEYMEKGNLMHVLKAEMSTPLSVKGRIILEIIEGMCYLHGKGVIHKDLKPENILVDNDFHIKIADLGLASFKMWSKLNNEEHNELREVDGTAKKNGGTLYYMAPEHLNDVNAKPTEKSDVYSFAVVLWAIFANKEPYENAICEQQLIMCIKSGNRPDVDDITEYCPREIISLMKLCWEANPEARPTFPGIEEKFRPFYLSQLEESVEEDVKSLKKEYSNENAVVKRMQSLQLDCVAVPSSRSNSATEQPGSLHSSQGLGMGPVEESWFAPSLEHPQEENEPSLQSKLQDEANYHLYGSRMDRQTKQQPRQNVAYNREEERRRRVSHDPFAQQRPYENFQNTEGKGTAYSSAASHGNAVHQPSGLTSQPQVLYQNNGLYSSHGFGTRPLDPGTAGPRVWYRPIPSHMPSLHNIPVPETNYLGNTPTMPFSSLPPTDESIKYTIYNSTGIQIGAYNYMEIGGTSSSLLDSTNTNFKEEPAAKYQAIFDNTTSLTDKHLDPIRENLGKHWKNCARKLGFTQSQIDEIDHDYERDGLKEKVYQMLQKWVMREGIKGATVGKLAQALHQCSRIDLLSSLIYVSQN
UniProt Q01974, whole entry: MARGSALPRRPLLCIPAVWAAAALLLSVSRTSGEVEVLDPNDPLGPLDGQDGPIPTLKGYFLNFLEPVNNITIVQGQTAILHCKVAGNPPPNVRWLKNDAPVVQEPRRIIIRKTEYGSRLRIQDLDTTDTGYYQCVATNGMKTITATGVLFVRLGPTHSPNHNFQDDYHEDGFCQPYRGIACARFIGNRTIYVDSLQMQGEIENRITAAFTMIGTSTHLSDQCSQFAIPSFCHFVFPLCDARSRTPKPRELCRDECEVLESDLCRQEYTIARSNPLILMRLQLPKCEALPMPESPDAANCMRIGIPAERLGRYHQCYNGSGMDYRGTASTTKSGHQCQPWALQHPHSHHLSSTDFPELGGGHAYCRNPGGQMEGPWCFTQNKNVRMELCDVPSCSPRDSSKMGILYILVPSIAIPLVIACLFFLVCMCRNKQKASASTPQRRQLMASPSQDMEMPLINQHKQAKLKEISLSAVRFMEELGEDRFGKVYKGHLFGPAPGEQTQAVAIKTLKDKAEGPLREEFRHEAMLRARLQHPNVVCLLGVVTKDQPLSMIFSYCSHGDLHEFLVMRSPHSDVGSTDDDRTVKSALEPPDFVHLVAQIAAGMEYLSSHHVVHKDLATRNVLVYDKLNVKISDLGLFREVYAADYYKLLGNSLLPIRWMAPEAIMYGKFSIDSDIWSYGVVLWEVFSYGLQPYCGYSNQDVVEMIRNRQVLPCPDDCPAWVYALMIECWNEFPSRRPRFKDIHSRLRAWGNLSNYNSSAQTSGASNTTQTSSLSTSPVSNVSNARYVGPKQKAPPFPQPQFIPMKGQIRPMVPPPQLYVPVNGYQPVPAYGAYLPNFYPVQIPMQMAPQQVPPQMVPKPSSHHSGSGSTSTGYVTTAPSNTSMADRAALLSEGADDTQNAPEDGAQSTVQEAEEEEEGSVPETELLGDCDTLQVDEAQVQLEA
UniProt Q15418, whole entry: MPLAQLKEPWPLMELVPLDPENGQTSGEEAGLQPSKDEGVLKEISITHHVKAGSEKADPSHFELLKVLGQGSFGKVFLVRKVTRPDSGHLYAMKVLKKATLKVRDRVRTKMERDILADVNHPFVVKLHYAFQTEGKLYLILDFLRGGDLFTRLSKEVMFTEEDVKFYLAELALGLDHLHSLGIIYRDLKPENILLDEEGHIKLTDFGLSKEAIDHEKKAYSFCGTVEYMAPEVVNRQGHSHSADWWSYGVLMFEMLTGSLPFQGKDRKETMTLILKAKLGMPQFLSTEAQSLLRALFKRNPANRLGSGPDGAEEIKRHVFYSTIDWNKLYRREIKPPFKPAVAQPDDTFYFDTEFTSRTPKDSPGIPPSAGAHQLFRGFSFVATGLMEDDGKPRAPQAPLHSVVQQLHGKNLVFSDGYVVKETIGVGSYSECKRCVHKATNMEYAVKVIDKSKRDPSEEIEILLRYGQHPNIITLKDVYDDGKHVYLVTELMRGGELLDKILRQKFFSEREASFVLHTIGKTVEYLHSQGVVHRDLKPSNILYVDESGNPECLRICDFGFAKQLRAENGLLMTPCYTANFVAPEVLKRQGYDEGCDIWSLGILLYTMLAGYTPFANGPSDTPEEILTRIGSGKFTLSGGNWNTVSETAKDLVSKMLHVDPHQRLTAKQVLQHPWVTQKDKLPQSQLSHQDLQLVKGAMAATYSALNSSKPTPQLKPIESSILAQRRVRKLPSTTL
UniProt Q9NYA1, whole entry: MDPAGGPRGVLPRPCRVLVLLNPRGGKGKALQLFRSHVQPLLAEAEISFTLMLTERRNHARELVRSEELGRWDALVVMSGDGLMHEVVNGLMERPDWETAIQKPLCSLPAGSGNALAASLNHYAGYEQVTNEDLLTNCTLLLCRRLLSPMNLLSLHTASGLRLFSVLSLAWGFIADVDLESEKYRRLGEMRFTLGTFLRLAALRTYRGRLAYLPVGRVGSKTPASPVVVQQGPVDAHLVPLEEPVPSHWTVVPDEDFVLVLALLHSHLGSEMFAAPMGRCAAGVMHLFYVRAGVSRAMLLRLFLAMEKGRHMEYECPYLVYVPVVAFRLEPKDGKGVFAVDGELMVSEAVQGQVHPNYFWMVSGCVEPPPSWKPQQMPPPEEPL
UniProt Q9Y6E0: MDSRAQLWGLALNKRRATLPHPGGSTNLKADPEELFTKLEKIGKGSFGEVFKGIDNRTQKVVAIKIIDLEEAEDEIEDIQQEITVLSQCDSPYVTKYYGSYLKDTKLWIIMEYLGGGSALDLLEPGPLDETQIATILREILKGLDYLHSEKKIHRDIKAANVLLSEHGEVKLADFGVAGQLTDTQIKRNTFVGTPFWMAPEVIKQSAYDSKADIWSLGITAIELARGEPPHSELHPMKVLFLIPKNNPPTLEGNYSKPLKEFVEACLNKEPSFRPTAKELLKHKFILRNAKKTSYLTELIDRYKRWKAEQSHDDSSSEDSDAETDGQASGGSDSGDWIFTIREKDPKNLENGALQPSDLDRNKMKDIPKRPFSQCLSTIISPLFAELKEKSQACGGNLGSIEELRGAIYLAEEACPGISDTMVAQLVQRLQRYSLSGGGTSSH

Measured: kinase-Nluc reporter destabilization hit call

C[C@H]1CC[C@]2(NC1)O[C@H]1C[C@H]3[C@@H]4CC[C@H]5C[C@@H](O)CC[C@]5(C)[C@H]4CC[C@]3(C)[C@H]1[C@@H]2C [Tomatidine (hydrochloride)] (10 µM)
inactive: RET 0 | [1] 0 | RIOK1 = 0 | RIPK1 = 0 | RIPK2 = 0 | ROR2 = 0 | RPS6KA1 = 0 | SPHK1 = 0 | SRC 0 | STK24 = 0

Cc1ccccc1-n1c(Cn2cnc3c(N)ncnc32)nc2cccc(C)c2c1=O (10 µM)
inactive: RET 0 | [1] 0 | RIOK1 = 0 | RIPK1 = 0 | RIPK2 = 0 | ROR2 = 0 | RPS6KA1 = 0 | SPHK1 = 0 | SRC 0 | STK24 = 0

NCCc1cn(S(=O)(=O)c2c(Cl)nc3sccn23)c2ccccc12 (10 µM)
inactive: RET 0 | [1] 0 | RIOK1 = 0 | RIPK1 = 0 | RIPK2 = 0 | ROR2 = 0 | RPS6KA1 = 0 | SPHK1 = 0 | SRC 0 | STK24 = 0

O=C(O)c1nn(Cc2ccc(Cl)cc2Cl)c2ccccc12 [Lonidamine] (10 µM)
inactive: RET 0 | [1] 0 | RIOK1 = 0 | RIPK1 = 0 | RIPK2 = 0 | ROR2 = 0 | RPS6KA1 = 0 | SPHK1 = 0 | SRC 0 | STK24 = 0

CCOC(=O)c1c(/C(C#N)=C\N)c2ccc(Cl)c(Cl)c2n1C (10 µM)
inactive: RET 0 | [1] 0 | RIOK1 = 0 | RIPK1 = 0 | RIPK2 = 0 | ROR2 = 0 | RPS6KA1 = 0 | SPHK1 = 0 | SRC 0 | STK24 = 0

O=[N+]([O-])/C=C/c1ccc2c(c1)OCO2 (2.5 µM)
inactive: RET 0 | [1] 0 | RIOK1 = 0 | RIPK1 = 0 | RIPK2 = 0 | ROR2 = 0 | RPS6KA1 = 0 | SPHK1 = 0 | SRC 0 | STK24 = 0

Quoted from the entries so far (two entries):
O=C(O)c1nn(Cc2ccc(Cl)cc2Cl)c2ccccc12 [Lonidamine] (10 µM)
inactive: RET 0 | [1] 0 | RIOK1 = 0 | RIPK1 = 0 | RIPK2 = 0 | ROR2 = 0 | RPS6KA1 = 0 | SPHK1 = 0 | SRC 0 | STK24 = 0

CCOC(=O)c1c(/C(C#N)=C\N)c2ccc(Cl)c(Cl)c2n1C (10 µM)
inactive: RET 0 | [1] 0 | RIOK1 = 0 | RIPK1 = 0 | RIPK2 = 0 | ROR2 = 0 | RPS6KA1 = 0 | SPHK1 = 0 | SRC 0 | STK24 = 0

(further entries)

O=c1[nH]c2ccccc2n1C1CCN(Cc2ccc(-c3[nH]c4cc5ncnc5cc4nc3-c3ccccc3)cc2)CC1 [AKT inhibitor VIII] (2.5 µM)
inactive: RET 0 | [1] 0 | RIOK1 = 0 | RIPK1 = 0 | RIPK2 = 0 | ROR2 = 0 | RPS6KA1 = 0 | SPHK1 = 0 | SRC 0 | STK24 = 0

CC1=C[C@]23C(=O)[C@@H](C=C(CO)[C@@H](O)[C@]2(O)[C@H]1O)[C@H]1[C@@H](C[C@H]3C)C1(C)C [Ingenol] (10 µM)
inactive: RET 0 | [1] 0 | RIOK1 = 0 | RIPK1 = 0 | RIPK2 = 0 | ROR2 = 0 | RPS6KA1 = 0 | SPHK1 = 0 | SRC 0 | STK24 = 0

CC1C(=O)OC2C(O)C34C5OC(=O)C3(OC3OC(=O)C(O)C34C(C(C)(C)C)C5O)C12O (stereo unspecified) [Ginkgolide C] (10 µM)
inactive: RET 0 | [1] 0 | RIOK1 = 0 | RIPK1 = 0 | RIPK2 = 0 | ROR2 = 0 | RPS6KA1 = 0 | SPHK1 = 0 | SRC 0 | STK24 = 0

CN(C)C(=O)c1ccc(Cn2c(C(=O)O)cc3c(Br)cc(Sc4ccc(Cl)c(Cl)c4)cc32)cc1 [Rheb inhibitor NR1] (10 µM)
inactive: RET 0 | [1] 0 | RIOK1 = 0 | RIPK1 = 0 | RIPK2 = 0 | ROR2 = 0 | RPS6KA1 = 0 | SPHK1 = 0 | SRC 0 | STK24 = 0

COc1ccc(/C=C/c2cc(OC)c(OC)c(OC)c2)cc1 (2.5 µM)
inactive: RET 0 | [1] 0 | RIOK1 = 0 | RIPK1 = 0 | RIPK2 = 0 | ROR2 = 0 | RPS6KA1 = 0 | SPHK1 = 0 | SRC 0 | STK24 = 0

Cc1ccccc1-n1c(Cn2ncc3c(N)ncnc32)nc2cccc(C)c2c1=O (10 µM)
inactive: RET 0 | [1] 0 | RIOK1 = 0 | RIPK1 = 0 | RIPK2 = 0 | ROR2 = 0 | RPS6KA1 = 0 | SPHK1 = 0 | SRC 0 | STK24 = 0

COc1ccc(N(C(=O)Oc2c(C)cccc2C)c2ccnc(Nc3ccc(N4CCN(C)CC4)cc3)n2)c(OC)c1 (2.5 µM)
inactive: RET 0 | [1] 0 | RIOK1 = 0 | RIPK1 = 0 | RIPK2 = 0 | ROR2 = 0 | RPS6KA1 = 0 | SPHK1 = 0 | SRC 0 | STK24 = 0

COc1ccc2c(c1)/C(=C/c1cnc[nH]1)C(=O)N2 (2.5 µM)
inactive: RIOK1 = 0 | RIPK1 = 0 | RIPK2 = 0 | ROR2 = 0 | RPS6KA1 = 0 | SPHK1 = 0 | SRC 0 | STK24 = 0

C[C@H](Nc1ncnc2[nH]cnc12)c1nc2ccc(F)cc2c(=O)n1-c1ccccc1 [Acalisib] (10 µM)
inactive: RET 0 | [1] 0 | RIOK1 = 0 | RIPK1 = 0 | RIPK2 = 0 | ROR2 = 0 | RPS6KA1 = 0 | SPHK1 = 0 | SRC 0 | STK24 = 0

COc1ccc2c(c[n+](C)c3c4cc5c(cc4ccc23)OCO5)c1OC [Chelerythrine (chloride)] (10 µM)
inactive: RET 0 | [1] 0 | RIOK1 = 0 | RIPK1 = 0 | RIPK2 = 0 | ROR2 = 0 | RPS6KA1 = 0 | SPHK1 = 0 | SRC 0 | STK24 = 0

COc1cc2c(cc1F)C(c1ccccc1Cl)=Nc1c(n[nH]c1C)N2 (0.5 µM)
inactive: RIOK1 = 0 | RIPK1 = 0 | RIPK2 = 0 | ROR2 = 0 | RPS6KA1 = 0 | SPHK1 = 0 | SRC 0 | STK24 = 0

CC(=O)O[C@H]1[C@H]2[C@@H](OC(=O)Cc3ccccc3)[C@@H](C)C[C@]2(OC(C)=O)C(=O)/C(C)=C/[C@@H]2[C@H](CC[C@@]13CO3)C2(C)C [Euphorbiasteroid] (10 µM)
inactive: RET 0 | [1] 0 | RIOK1 = 0 | RIPK1 = 0 | RIPK2 = 0 | ROR2 = 0 | RPS6KA1 = 0 | SPHK1 = 0 | SRC 0 | STK24 = 0

O=c1ccc2cc(O[C@@H]3O[C@H](CO)[C@@H](O)[C@H](O)[C@H]3O)c(O)cc2o1 [Esculin] (10 µM)
inactive: RET 0 | [1] 0 | RIOK1 = 0 | RIPK1 = 0 | RIPK2 = 0 | ROR2 = 0 | RPS6KA1 = 0 | SPHK1 = 0 | SRC 0 | STK24 = 0

C[C@@H]1CC[C@H]2[C@@H](C)C(=O)O[C@@H]3O[C@@]4(C)CC[C@@H]1[C@]32OO4 [Artemisinin] (10 µM)
inactive: RET 0 | [1] 0 | RIOK1 = 0 | RIPK1 = 0 | RIPK2 = 0 | ROR2 = 0 | RPS6KA1 = 0 | SPHK1 = 0 | SRC 0 | STK24 = 0

CC(=O)OC(C)(C)/C=C/C(=O)[C@](C)(O)[C@H]1[C@H](O)C[C@@]2(C)[C@@H]3CC=C4[C@@H](C=C(O)C(=O)C4(C)C)[C@]3(C)C(=O)C[C@]12C [Cucurbitacin E] (2.5 µM)
inactive: RET 0 | [1] 0 | RIOK1 = 0 | RIPK1 = 0 | RIPK2 = 0 | ROR2 = 0 | RPS6KA1 = 0 | SPHK1 = 0 | SRC 0 | STK24 = 0

O=C1C=CC[C@@H]2[C@H]3CCCN4CCC[C@@H](CN12)[C@@H]34 [Sophocarpine (monohydrate)] (2.5 µM)
inactive: RET 0 | [1] 0 | RIOK1 = 0 | RIPK1 = 0 | RIPK2 = 0 | ROR2 = 0 | RPS6KA1 = 0 | SPHK1 = 0 | SRC 0 | STK24 = 0

COc1ccc2c(c1OC)C(OC)N(C)c1c-2ccc2cc3c(cc12)OCO3 (stereo unspecified) [Angoline] (10 µM)
inactive: RET 0 | [1] 0 | RIOK1 = 0 | RIPK1 = 0 | RIPK2 = 0 | ROR2 = 0 | RPS6KA1 = 0 | SPHK1 = 0 | SRC 0 | STK24 = 0

O=C(N[C@@H](COc1ccc2[nH]c(=O)[nH]c2c1)c1ccccc1)c1cccn(Cc2ccc(F)c(F)c2)c1=O (2.5 µM)
inactive: RET 0 | [1] 0 | RIOK1 = 0 | RIPK1 = 0 | RIPK2 = 0 | ROR2 = 0 | RPS6KA1 = 0 | SPHK1 = 0 | SRC 0 | STK24 = 0

O=c1cc(O)c2ccccc2o1 [4-Hydroxycoumarin] (10 µM)
inactive: RET 0 | [1] 0 | RIOK1 = 0 | RIPK1 = 0 | RIPK2 = 0 | ROR2 = 0 | RPS6KA1 = 0 | SPHK1 = 0 | SRC 0 | STK24 = 0

CC(C)(C)c1cc(C=C(C#N)C#N)cc(Br)c1O (2.5 µM)
inactive: RET 0 | [1] 0 | RIOK1 = 0 | RIPK1 = 0 | RIPK2 = 0 | ROR2 = 0 | RPS6KA1 = 0 | SPHK1 = 0 | SRC 0 | STK24 = 0

CC(C)=CC[C@@H](OC(=O)CC(C)(C)O)C1=CC(=O)c2c(O)ccc(O)c2C1=O [β-Hydroxyisovalerylshikonin] (2.5 µM)
inactive: RET 0 | [1] 0 | RIOK1 = 0 | RIPK1 = 0 | RIPK2 = 0 | ROR2 = 0 | RPS6KA1 = 0 | SPHK1 = 0 | SRC 0 | STK24 = 0

Cc1n[nH]cc1-c1cc2nc([C@@H]3CC4CCN3CC4)[nH]c(=O)c2s1 [Simurosertib] (2.5 µM)
inactive: RET 0 | [1] 0 | RIOK1 = 0 | RIPK1 = 0 | RIPK2 = 0 | ROR2 = 0 | RPS6KA1 = 0 | SPHK1 = 0 | SRC 0 | STK24 = 0

C[C@H]1CC[C@]2(NC1)O[C@H]1C[C@H]3[C@@H]4CC[C@H]5C[C@@H](O)CC[C@]5(C)[C@H]4CC[C@]3(C)[C@H]1[C@@H]2C [Tomatidine] (2 µM)
inactive: RET 0 | [1] 0 | RIOK1 = 0 | RIPK1 = 0 | RIPK2 = 0 | ROR2 = 0 | RPS6KA1 = 0 | SPHK1 = 0 | SRC 0 | STK24 = 0
